The list shows a part of the results.

This assay has as its target T1, OsSMF1 (Oryza sativa, UniProt Q6ZLB0 1-436).
T1 sequence: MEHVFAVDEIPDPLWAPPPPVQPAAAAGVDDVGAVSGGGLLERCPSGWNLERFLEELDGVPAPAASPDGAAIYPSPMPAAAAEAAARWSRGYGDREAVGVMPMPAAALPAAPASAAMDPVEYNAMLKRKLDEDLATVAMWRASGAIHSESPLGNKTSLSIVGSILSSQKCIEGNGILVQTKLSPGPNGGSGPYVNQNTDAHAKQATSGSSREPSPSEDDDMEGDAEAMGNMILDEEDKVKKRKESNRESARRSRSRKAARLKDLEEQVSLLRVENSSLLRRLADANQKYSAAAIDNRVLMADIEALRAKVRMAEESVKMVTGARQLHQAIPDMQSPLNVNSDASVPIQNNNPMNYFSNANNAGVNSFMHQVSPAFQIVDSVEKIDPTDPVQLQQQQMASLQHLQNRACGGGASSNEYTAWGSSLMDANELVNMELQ
The assay is described as follows: protein-binding microarray (RPBM); PBS, 2% BSA, 51.3 ng/ul salmon testes DNA, 50 uM zinc acetate, 200 nM TF, 25 C, 1 h; high values mean tight binding. The note with it: protein: recombinant; tags: N-terminal polyhistidine and DsRed monomer fusion (pET32a); chain copies: 2; label: CyDye5-dUTP incorporated in the synthesized complementary strand; 3' TTTTT single-stranded linker to array surface; dsDNA, one strand shown. The gist of the method: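 Using Ni–NTA, transcription factors fused N-terminally to polyhistidine and DsRed were purified after expression in E. coli BL21-CodonPlus. These were incubated at 200 nM with a blocked, double-stranded custom Agilent array for 1 h at 25 °C in a buffer containing 50 µM zinc acetate, and the array was washed. The binding signal is per-feature fluorescence intensity (arbitrary units) on an Axon 4000B scanner.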
Consider “AGTTACACCTCATTTACACCCCACTTACATATGTAATTAGCGGAGTCACCTAGTGCAG”, for which the binding signal is 5050 fluorescence intensity (a.u.). The value for “TTCTTGGAACAGCCTAAAGTAGCTGATGACTTTGATGTGCCGGAGTCACCTAGTGCAG” was 3330 fluorescence intensity (a.u.). The value for “CGTTGCGCACGTACAGCTCACGCTCAAGTCGTACACATTACGGAGTCACCTAGTGCAG” was 3840 fluorescence intensity (a.u.); that for “CGCCCGCGCAGTCCACGCACGCAGCGCTGTCGTTCGTTGCCGGAGTCACCTAGTGCAG” was 35700 fluorescence intensity (a.u.); that for “TTAAATTACTCATCCGATTTACAATCCGATTACACCGTTGCGGAGTCACCTAGTGCAG” was 3640 fluorescence intensity (a.u.). As for “GGCGCCGGCGCTAGCGCCCACGTCGGGGTTGGGGTTGGGGCGGAGTCACCTAGTGCAG”, the binding signal was 6010 fluorescence intensity (a.u.).

For “TACAAATACCCGCCTCGCTTCGGACAAACACCTCACTCACCGGAGTCACCTAGTGCAG”, the binding signal was 3430 fluorescence intensity (a.u.). On to “AGGGAGATCGATCCGCCTCCGCCTCCGCCTCCGCCATGCTCGGAGTCACCTAGTGCAG”, for which the binding signal was 3360 fluorescence intensity (a.u.).

On to “GGTTGACCTCGCGCGTGCGGCGTGTCGTGTCGTGTGTGTGCGGAGTCACCTAGTGCAG”, for which the binding signal was 6100 fluorescence intensity (a.u.). As for “CTTGAACAAAAGAAACAAAGTAGCAAACAGTACACTCGTACGGAGTCACCTAGTGCAG”, the figure is 33800 fluorescence intensity (a.u.). The value for “CGCTGGCGGTGGTCATCACCTGGAGGACCACCGGGCCCATCGGAGTCACCTAGTGCAG” was 3340 fluorescence intensity (a.u.); that for “CCACTCTATGTGTACGTGTCATCGTGTCTATGGATGCAATCGGAGTCACCTAGTGCAG” was 13100 fluorescence intensity (a.u.). As for “TCATAGGGTAGCTCCTATATATTTCAGCTCTTTGGTCCTTCGGAGTCACCTAGTGCAG”, the figure is 3780 fluorescence intensity (a.u.). Turning to “ACGACTCCCTCCCACTCTACCCTCGTCTCGTGCGCGTGGACGGAGTCACCTAGTGCAG”, the binding signal was 3370 fluorescence intensity (a.u.). For “TGGCGTGCGTGCGTCACGTCACGTCGCTATTCTTTTGCAACGGAGTCACCTAGTGCAG”, the binding signal was 9290 fluorescence intensity (a.u.).

Regarding “GAGGGCGGTTTTGCTGATGTGGCGTTGACGTGGCGATGTTCGGAGTCACCTAGTGCAG”, the binding signal was 27700 fluorescence intensity (a.u.). As for “CCGTGATTAGTTCGGTGCGTGTAAAGGTAGTCTGCAACATCGGAGTCACCTAGTGCAG”, the figure is 3520 fluorescence intensity (a.u.). The value for “ATATTCTCTATAGGTGCTGGTTCTAAAACCGGCACCTATACGGAGTCACCTAGTGCAG” was 3480 fluorescence intensity (a.u.); that for “TGGAAACCTAGTAATATTGTCACTAGCATGACATCATTTACGGAGTCACCTAGTGCAG” was 3950 fluorescence intensity (a.u.). As for “AATAACAAGAATTGTGTATAGGTGGCGCGTCCCAGTATCTCGGAGTCACCTAGTGCAG”, the figure is 3750 fluorescence intensity (a.u.). In the case of “GATATGTCATCGGTATCTCAATGACATGTAGGACCCACATCGGAGTCACCTAGTGCAG”, the binding signal was 4800 fluorescence intensity (a.u.). On to “TTCGGGATTGAAGTTCCATCTACATGAAAGATGAGTTGCACGGAGTCACCTAGTGCAG”, for which the binding signal was 3670 fluorescence intensity (a.u.). The value for “CTGCCTCGATCGATCGATCTCATCTCATCTGCGCTGTTCTCGGAGTCACCTAGTGCAG” was 19100 fluorescence intensity (a.u.); that for “GTTTCAACGCTAATGACATGGGCAGGCAATGCGAGGTGTGCGGAGTCACCTAGTGCAG” was 4170 fluorescence intensity (a.u.). As to “TTGGGAATCCTGTAGAACGACAGATTTTGATCAGTGAAATCGGAGTCACCTAGTGCAG”, the binding signal was 3230 fluorescence intensity (a.u.). The value for “GCCATGCATCCATACACGTCTACACTCTACACCCATTAACCGGAGTCACCTAGTGCAG” was 4850 fluorescence intensity (a.u.); that for “CCCGCCTCGCCGTCTCCCGTTCGGAACACCAAGCTCCAGCCGGAGTCACCTAGTGCAG” was 32200 fluorescence intensity (a.u.); that for “CATTTCTCTGCCACCTCATCACTTTTGCCATCGTGGACACCGGAGTCACCTAGTGCAG” was 14300 fluorescence intensity (a.u.). Consider “TTTGAAACCCCTCCTCCTCCTCCTTCCCCAACACACAATCCGGAGTCACCTAGTGCAG”, for which the binding signal is 3250 fluorescence intensity (a.u.). Turning to “TAGGTGGTTAGCCCAAGCTCGCGAGATCGATCGCTACTATCGGAGTCACCTAGTGCAG”, the binding signal was 6610 fluorescence intensity (a.u.).

Consider “CCGAAACCACAAAATTGCGTGGTTTTCGACCGGTTTTCATCGGAGTCACCTAGTGCAG”, for which the binding signal was 6260 fluorescence intensity (a.u.). The value for “TATGGTGATACGTGTCTAGTGGTGTGCGTGCTTAGTTTTGCGGAGTCACCTAGTGCAG” was 6100 fluorescence intensity (a.u.); that for “ATATTAAAACTTGACAATGCTGTCACCTTATTACTCCCTCCGGAGTCACCTAGTGCAG” was 4420 fluorescence intensity (a.u.); that for “CGTTCATCCTGTCCACCCAGAGCCATTGCCACACACACACCGGAGTCACCTAGTGCAG” was 3490 fluorescence intensity (a.u.).

As to “ATTTGTGTACGGCACCGCCCCACCCGCCACGCCTCCGCCTCGGAGTCACCTAGTGCAG”, the binding signal was 3290 fluorescence intensity (a.u.).

In the case of “TACTCGATTTGGTTCTTGGTTGTGACGAGTGTTCCGGGTGCGGAGTCACCTAGTGCAG”, the binding signal was 3140 fluorescence intensity (a.u.).

Take “TAAAATTTTGGCTGATAAGTACTTCCTCCGTTTCACGATGCGGAGTCACCTAGTGCAG”: the binding signal is 3250 fluorescence intensity (a.u.).

Turning to “TTGTATCATTACCTAATTAGAGCTAGCTCTGCCACCACTGCGGAGTCACCTAGTGCAG”, the binding signal is 3370 fluorescence intensity (a.u.).

Turning to “GCCGCCGCTGGCGGGTGGGGATCGGTGGGGCAGTTCGGGCCGGAGTCACCTAGTGCAG”, the binding signal was 3640 fluorescence intensity (a.u.). The value for “GAAACTTGTAGAAGCGAAAAGAGCGATGGGTGTCAGTTTGCGGAGTCACCTAGTGCAG” was 3200 fluorescence intensity (a.u.); that for “CCTGAAGCTCTTCGCACGAATGTCGATACATTCCCAAGCGCGGAGTCACCTAGTGCAG” was 3480 fluorescence intensity (a.u.); that for “ACGATTCACAACCCACGAGTGATGATTCAGAAGTGAAAACCGGAGTCACCTAGTGCAG” was 3260 fluorescence intensity (a.u.).

The values above are taken from paper PMC7819943, “Rice protein-binding microarrays: a tool to detect cis-acting elements near promoter regions in rice”.
